Results are given in words; binding and its absence hold for the method and conditions named. In cells and extracts the contact can be indirect. Binding calls can cover weak binding; strength is not graded here. Sequences can lack the tags named with a protein.
Molecular target: T1, Flag-CCAR1L (long isoform of cell cycle and apoptosis regulator 1) (human) (UniProt Q8IX12)
T1 sequence: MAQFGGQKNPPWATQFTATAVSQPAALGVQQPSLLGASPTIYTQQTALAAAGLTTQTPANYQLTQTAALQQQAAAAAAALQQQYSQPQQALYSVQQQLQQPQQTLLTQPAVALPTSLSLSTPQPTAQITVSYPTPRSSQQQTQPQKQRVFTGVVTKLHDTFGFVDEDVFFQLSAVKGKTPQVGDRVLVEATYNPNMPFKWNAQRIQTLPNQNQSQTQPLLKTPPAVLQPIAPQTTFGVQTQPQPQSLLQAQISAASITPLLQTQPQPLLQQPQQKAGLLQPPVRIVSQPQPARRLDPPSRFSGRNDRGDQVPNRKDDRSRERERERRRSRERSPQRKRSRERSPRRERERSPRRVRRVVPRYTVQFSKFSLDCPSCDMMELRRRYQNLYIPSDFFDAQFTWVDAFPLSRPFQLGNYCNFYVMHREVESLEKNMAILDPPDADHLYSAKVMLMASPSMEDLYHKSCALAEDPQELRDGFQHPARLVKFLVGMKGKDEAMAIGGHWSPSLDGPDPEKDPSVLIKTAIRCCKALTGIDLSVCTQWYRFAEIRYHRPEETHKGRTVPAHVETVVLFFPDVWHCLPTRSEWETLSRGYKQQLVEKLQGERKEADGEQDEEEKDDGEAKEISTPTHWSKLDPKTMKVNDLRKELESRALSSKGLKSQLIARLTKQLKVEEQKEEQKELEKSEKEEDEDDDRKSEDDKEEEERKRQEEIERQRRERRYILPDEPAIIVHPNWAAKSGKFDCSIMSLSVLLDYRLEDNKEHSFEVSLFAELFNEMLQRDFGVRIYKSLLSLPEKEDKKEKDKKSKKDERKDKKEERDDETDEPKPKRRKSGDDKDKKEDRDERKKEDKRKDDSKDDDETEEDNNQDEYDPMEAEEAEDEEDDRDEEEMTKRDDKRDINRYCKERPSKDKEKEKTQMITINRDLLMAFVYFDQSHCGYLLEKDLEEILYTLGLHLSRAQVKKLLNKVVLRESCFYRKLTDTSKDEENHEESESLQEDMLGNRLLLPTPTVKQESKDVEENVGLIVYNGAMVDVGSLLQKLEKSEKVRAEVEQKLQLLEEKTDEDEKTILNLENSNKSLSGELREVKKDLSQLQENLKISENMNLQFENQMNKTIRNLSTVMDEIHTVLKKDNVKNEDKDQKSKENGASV
Test: co-IP; lysates of transfected A549 cells, immunoprecipitation with the indicated antibodies and immunoblotting; for Myc-SRSF5 with Flag-Tip60 the cells were at 2.5 or 25 mM glucose

binding: binds
Substance: HA-CDKN2A

Reference: paper PMC6018636, “Mutually exclusive acetylation and ubiquitylation of the splicing factor SRSF5 control tumor growth” (Nature Communications, 2018)
